Test results taken from publication PMC9525679, “Inositol hexakisphosphate is required for Integrator function” (Nature Communications, 2022).
No constants are given. Whether binding was seen depends on the method and setting. Some results given as binding are weak or reduced against the parent protein; the word gives no strength. For part of these data: Tags and fused reporters may be left off the sequences shown.

By UniProt entry, the sequences of proteins in these tests, tags left out.
UniProt Q9VAH9: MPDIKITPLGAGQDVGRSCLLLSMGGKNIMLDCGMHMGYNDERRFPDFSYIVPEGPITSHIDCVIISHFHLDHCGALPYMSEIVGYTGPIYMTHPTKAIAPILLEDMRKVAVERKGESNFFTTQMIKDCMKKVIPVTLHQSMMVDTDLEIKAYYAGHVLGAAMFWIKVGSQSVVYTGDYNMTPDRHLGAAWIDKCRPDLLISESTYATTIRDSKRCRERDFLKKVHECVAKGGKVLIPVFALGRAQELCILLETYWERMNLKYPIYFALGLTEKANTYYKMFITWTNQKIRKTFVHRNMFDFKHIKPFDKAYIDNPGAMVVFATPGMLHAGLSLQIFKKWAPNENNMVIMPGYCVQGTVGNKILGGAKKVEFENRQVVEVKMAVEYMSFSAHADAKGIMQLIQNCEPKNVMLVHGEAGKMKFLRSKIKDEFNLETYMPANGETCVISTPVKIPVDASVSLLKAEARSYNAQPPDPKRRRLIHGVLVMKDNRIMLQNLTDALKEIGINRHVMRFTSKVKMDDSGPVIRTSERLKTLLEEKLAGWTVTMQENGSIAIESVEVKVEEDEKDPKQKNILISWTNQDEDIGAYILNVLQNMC

Experiments:
[1] = biological target: T1, Drosophila IntS4 (N-terminal 6xHis-tagged), subunit of the Integrator cleavage module (Drosophila (D. melanogaster)) (UniProt Q9W3E1); test: SEC; gel filtration (Hiload 16/60 Superdex 200) of wild-type and K462E mutant Drosophila ICM co-expressed in insect cells, after nickel affinity; SDS gel of the complex; both purified
T1 sequence: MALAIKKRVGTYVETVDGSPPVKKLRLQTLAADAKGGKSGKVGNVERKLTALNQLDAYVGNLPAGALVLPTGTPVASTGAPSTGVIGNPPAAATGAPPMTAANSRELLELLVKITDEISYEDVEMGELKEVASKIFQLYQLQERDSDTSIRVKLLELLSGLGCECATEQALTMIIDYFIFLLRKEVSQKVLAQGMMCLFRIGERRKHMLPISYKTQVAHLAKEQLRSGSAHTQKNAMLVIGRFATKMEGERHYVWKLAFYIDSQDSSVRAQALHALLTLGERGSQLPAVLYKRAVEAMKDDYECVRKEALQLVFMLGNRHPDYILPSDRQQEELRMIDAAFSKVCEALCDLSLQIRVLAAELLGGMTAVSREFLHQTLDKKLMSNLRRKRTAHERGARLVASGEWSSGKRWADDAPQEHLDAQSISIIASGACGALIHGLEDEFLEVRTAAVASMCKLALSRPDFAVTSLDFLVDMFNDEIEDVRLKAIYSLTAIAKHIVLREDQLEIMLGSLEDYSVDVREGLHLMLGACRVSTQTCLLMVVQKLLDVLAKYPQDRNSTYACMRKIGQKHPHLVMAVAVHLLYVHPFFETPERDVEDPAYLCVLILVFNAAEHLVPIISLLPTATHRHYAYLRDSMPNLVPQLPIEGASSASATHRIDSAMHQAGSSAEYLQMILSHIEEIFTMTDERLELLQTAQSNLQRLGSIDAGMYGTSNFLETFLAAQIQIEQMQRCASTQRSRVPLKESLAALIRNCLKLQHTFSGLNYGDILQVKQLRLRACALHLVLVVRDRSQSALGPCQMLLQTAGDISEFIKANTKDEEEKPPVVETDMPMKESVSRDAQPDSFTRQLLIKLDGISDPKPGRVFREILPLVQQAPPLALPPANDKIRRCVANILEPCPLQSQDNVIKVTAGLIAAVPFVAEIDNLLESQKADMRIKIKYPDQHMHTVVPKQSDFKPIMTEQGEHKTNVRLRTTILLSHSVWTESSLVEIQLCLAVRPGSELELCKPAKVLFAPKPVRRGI

[2] = biological target: T2, Drosophila IntS9, subunit of the Integrator cleavage module (Drosophila (D. melanogaster)) (UniProt Q95TS5); test: as above
T2 sequence: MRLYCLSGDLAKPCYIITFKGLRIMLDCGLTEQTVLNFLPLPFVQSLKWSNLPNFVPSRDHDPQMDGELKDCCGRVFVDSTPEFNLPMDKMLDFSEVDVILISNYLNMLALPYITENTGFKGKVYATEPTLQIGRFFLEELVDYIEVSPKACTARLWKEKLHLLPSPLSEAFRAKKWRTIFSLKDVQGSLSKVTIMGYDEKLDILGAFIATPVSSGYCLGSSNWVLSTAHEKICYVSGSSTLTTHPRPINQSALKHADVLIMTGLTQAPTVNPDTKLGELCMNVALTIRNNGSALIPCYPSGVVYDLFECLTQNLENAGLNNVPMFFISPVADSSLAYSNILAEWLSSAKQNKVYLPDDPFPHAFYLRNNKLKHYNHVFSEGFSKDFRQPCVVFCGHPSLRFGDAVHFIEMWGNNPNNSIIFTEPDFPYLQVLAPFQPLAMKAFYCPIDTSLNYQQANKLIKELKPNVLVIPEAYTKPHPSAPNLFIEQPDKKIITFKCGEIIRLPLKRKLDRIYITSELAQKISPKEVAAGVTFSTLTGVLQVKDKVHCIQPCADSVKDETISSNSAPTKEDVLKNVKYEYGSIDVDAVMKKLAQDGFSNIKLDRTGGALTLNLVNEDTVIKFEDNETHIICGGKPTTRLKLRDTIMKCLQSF

[3] = biological target: T1, Drosophila IntS4 (N-terminal 6xHis-tagged), subunit of the Integrator cleavage module (Drosophila (D. melanogaster)); test: cryo-EM structure; Drosophila IntS4-IntS9-IntS11 complex co-expressed in Tni insect cells and purified (nickel affinity, Superdex 200); 0.1 mg/ml on a gold grid with graphene oxide support film; 2.74 Å; IP6 bound; both purified
[4] = biological target: T2, Drosophila IntS9, subunit of the Integrator cleavage module (Drosophila (D. melanogaster)); test: as above

Measured: binding

Drosophila IntS11, subunit of the Integrator cleavage module (from UniProt Q9VAH9 1-597) (enzyme)
binds: all assays above

B1: Drosophila IntS9, subunit of the Integrator cleavage module (protein, UniProt Q95TS5 1-654)
chain: T2 sequence
binds: [1] | [3]
